Data set [1] can be described thus: general procedure: Fmoc solid-phase peptide synthesis; Fmoc-Leu-CLEAR Acid resin; HBTU-HOBt/DIEA; DCC/HOBt; HATU/DIEA. To be noted: whole synthesis, scale 0.017 mmol.
A short description of data set [2]: general procedure: Fmoc solid-phase peptide synthesis; Fmoc-CLEAR-Amide resin; HBTU-HOBt/DIEA; DCC/HOBt; HATU/DIEA. The note with it: whole synthesis, scale 0.2 mmol.

The text below walks through data of patent US20120004457 (published 2012).

Consider “Ser(CH2S—S-Bu^t)-Asn-Ala-Thr(GaINAcBn)-Lys-Lys-Pro-Tyr-Ile-Leu-OH”, for which, in data set [1], the isolated mass was 5.5 mg and the isolated yield turned out to be 21%.

pGlu-Ser-Glu-Glu-Gly-Gly-SC6H4CH2COOH: in data set [2], the isolated mass turned out to be 4.3 mg and the isolated yield is reported as 6%.
